# Laboratory results from PubChem BioAssay AID504467 (National Center for Advancing Translational Sciences (NCATS), 2011).
# The campaign covered roughly 330,000 compounds. About 7,700 (2.3%) were called active. Inconclusive means that the source gave no clear call. Such entries were picked first, then a sample of the others. Calls come from the whole dose curve; as a rule, active = well fitted inhibition curve with a large enough effect; inconclusive = small, poorly fitted or top-dose-only effect, or effect the other way; inactive = flat fitted curve, though single readings scatter. Where the call is inconclusive, the potency comes from a doubtful curve fit.
# Assay: qHTS screen for small molecules that inhibit ELG1-dependent DNA repair in human embryonic kidney (HEK293T) cells expressing luciferase-tagged ELG1; note: nearly all actives have a fitted effect of over 55% in size
# Conditions: HEK293T ELG1-luciferase reporter, luminescence, 16 h, DNA damage induced by 5-fluorouridine; series mostly up to 46.1 µM
# In short: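 Reporter activity after DNA damage by 5-fluorouridine is monitored. Compound-treated cells incubate 16 hr at 37 °C, then ONE-Glo is added for 30 min before luminescence reading.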
# Potency is the fitted concentration of half-maximal effect.
row,SMILES,Potency
1,CCOc1ccc2ccccc2c1C1NC(=O)N(C)C(C)=C1C(=O)OCCOC (centres undefined),inactive
2,CC(C)c1ccc(NC(=S)N(C)CCc2ccccn2)cc1,inactive
3,COCc1c(C(=O)N2CCN(S(=O)(=O)c3ccccc3Cl)CC2)oc2ccccc12,active: 10 µM
4,c1ccc(-c2nnc(-c3ccco3)n2-c2ccccc2)cc1,"inconclusive: 11.6 µM [inhibitor, partial curve, poor fit]"
5,Cc1ccc(SCC(=O)Nc2ccccc2C(=O)O)cc1,"inconclusive: 23.1 µM [activator, partial curve]"
6,CCCNC(=O)c1noc2c1CCc1ccccc1-2,"inconclusive: 18.4 µM [activator, partial curve]"
7,CCOC(=O)Cc1cnc(NC(=O)CSc2nc(C)c(CC)c(=O)[nH]2)s1,"inconclusive: 18.3 µM [inhibitor, partial curve, poor fit]"
8,CC(Sc1nnnn1-c1ccccc1)C(=O)Nc1ccc(Cl)cn1 (centres undefined),"inconclusive: 10 µM [inhibitor, single point]"
9,COc1ccc(N(C(C)C(=O)N/N=C/c2ccc(OC)c(OC)c2)S(C)(=O)=O)cc1 (centres undefined),inactive
10,Cc1ccc(C(NC(=O)N2CCCC2)C(Cl)(Cl)Cl)cc1F (centres undefined),"inconclusive: 8.2 µM [inhibitor, partial curve, poor fit]"
11,COc1ccc(S(=O)(=O)N(Cc2ccccc2)c2ccccc2C(=O)N2CCOCC2)cc1,"inconclusive: 14.6 µM [inhibitor, partial curve, poor fit]"
12,CC(C)CCNC(=O)CC1C(=O)N(Cc2ccccc2)C(C)c2nc3ccccc3n21 (centres undefined),"inconclusive: 23.1 µM [inhibitor, partial curve]"
13,C=CCOc1ccc(/C=C/C(=O)OCC(=O)N2CCCc3ccccc32)cc1,inactive
14,COc1ccc(CCNC(=O)c2ccccc2NC(=O)C2=C(C)OCCS2)c(OC)c1,active: 18.3 µM
15,Cc1cc(C(=O)OCC(=O)N2c3ccccc3NC(=O)C2(C)C)c(C)n1-c1ccccc1,active: 29.1 µM
16,CCOc1cc(C(=S)N2CCOCC2)ccc1OC,inactive
17,Cc1ncoc1C(=O)NC1CCCc2c1cnn2-c1ccc(C(C)(C)C)cc1 (centres undefined),active: 1.3 µM
18,COc1ccccc1NC(=O)Nc1nnc(CC(=O)Nc2ccccc2)s1,"inconclusive: 20.6 µM [activator, single point]"
19,CCOC(=O)[C@H]1[C@H]2COc3ccc(OC)cc3[C@@H]2N2C(=O)CN(CCc3c[nH]c4ccccc34)C(=O)[C@@]12C,inactive
20,CCOc1cc(/C=N/NC(=O)c2ccncc2)cc(Cl)c1OS(C)(=O)=O,active: 14.6 µM
21,O=C(c1ccc(Br)cc1)c1cc2ccc(O)cc2oc1=O,"inconclusive: 16.4 µM [activator, partial curve, poor fit]"
22,O=C1CCCCN1CCc1c[nH]c2ccccc12,"inconclusive: 20.6 µM [activator, partial curve]"

# At a glance, part of the list above:
row,SMILES,Potency
21,O=C(c1ccc(Br)cc1)c1cc2ccc(O)cc2oc1=O,"inconclusive: 16.4 µM [activator, partial curve, poor fit]"
22,O=C1CCCCN1CCc1c[nH]c2ccccc12,"inconclusive: 20.6 µM [activator, partial curve]"

# Remaining list, next part:

row,SMILES,Potency
1,O=C(c1cccs1)N1CCC(c2nc3c(nnn3Cc3c(Cl)cccc3Cl)c(=O)[nH]2)CC1,"inconclusive: 16.4 µM [inhibitor, partial curve]"
2,O=C(O)CSc1nnc(-c2ccc3c(c2)OCO3)n1-c1ccccc1,"inconclusive: 18.3 µM [activator, partial curve, poor fit]"
3,Cc1cc(C(=O)N2CCOCC2)c(C)o1,inactive
4,CCCC(=O)n1nc(-c2cccnc2)nc1NCc1cccs1,inactive
5,Cc1ccc(C)c2nc3sc(C(=O)N4CCOCC4)c(N)c3cc12,"inconclusive: 18.3 µM [activator, single point]"
6,CC(=O)N/C(=C\c1ccccc1)C(=O)OCC(=O)Nc1cc(S(=O)(=O)N(C)C)ccc1C,inactive
7,O=C(Nc1cccnc1)c1cccc(S(=O)(=O)Nc2ccccc2F)c1,"inconclusive: 29.1 µM [inhibitor, single point]"
8,Cc1ccc(S(=O)(=O)Nc2ccc3c(c2)n(C)c(=O)n3C)c(C)c1,"inconclusive: 20.6 µM [activator, partial curve]"
9,COc1ccc(C(=O)Nc2ccccc2C(=O)Nc2ccccn2)cc1,"inconclusive: 20 µM [activator, single point]"
10,O=C(CS(=O)(=O)c1ccccc1)Nc1nc2ccccc2s1,"inconclusive: 18.3 µM [activator, single point]"
11,Cn1c(Cn2cnc3ccccc32)nnc1SCc1ccccc1,"inconclusive: 29.1 µM [inhibitor, single point]"
12,O=C(Cn1cc2c(n1)CCCC2)Nc1cc(-c2cccc(Cl)c2)no1,"inconclusive: 23.1 µM [activator, partial curve]"
13,O=C(Cn1c(NCCO)nc2ccccc21)Nc1ccc2c(c1)OCCCO2,inactive
14,Cc1cc(C)nc(N/N=C/c2ccccc2OCc2ccc(Cl)cc2)n1,"inconclusive: 29.1 µM [inhibitor, single point]"
15,CCOC(=O)C1=C(COc2ccc(C)cc2)NC(=O)NC1c1cc(C)ccc1C (centres undefined),"inconclusive: 16.4 µM [activator, partial curve, poor fit]"
16,CC1Cc2ccccc2N1C(=O)COc1ccc2c(c1)OCO2 (centres undefined),"inconclusive: 20.6 µM [activator, partial curve]"
17,CCN1C(=O)[C@H]2[C@@H](c3ccc(-c4ccc(OC)cc4)cc3)N[C@@](CC(C)C)(C(=O)OC)[C@H]2C1=O,inactive
18,CCOc1ccc(N(CC(=O)NCc2ccccc2)S(C)(=O)=O)cc1,"inconclusive: 20.6 µM [activator, partial curve]"
19,O=C1OC(c2ccc3c(c2)OCO3)N(C(=O)c2ccc(Cl)c(Cl)c2)c2ccccc21 (centres undefined),"inconclusive: 18.4 µM [activator, partial curve]"
20,COc1ccc(C(=O)N/C(=C\c2cn(C)c3ccccc23)C(=O)NCCN2CCOCC2)cc1OC,inactive
21,Cc1cccc(Nc2ncnc(N)n2)c1,"inconclusive: 25.9 µM [activator, partial curve]"
22,C=CCn1cccc(C(=O)Nc2ccc(C)c(C)c2)c1=O,"inconclusive: 14.6 µM [activator, partial curve]"
